Numbering of substitutions follows the chain as printed. No constants are given. Whether binding was seen depends on the method and setting. Binding can be weak; no strength is given.

The target in experiment [1] is human IL-22 (human). In words: ELISA: plate coated with 1 µg/ml antigen, IgG at 1 µg/ml, HRP anti-human IgG, A450. For orientation: An ELISA detects its analyte on a solid surface through an enzyme-linked reagent.
In experiment [2] the target is rat IL-22 (rat). Described as above.

B1: 062G05 IgG (non-germlined) (antibody, V domains shown)
VH: QVQLVESGAEVKKPGASVKVSCKASGYTFTSYGISWVRQAPGQGLEWMGWISAYTGNTNYAQKFQGRVTMTTDTSTSTAYMELRSLRSDDTAVYYCARDRGYYDAFDIWGQGTLVTVSS
VL: DIQMTQSPSTLSASIGDRVTITCRASEGIYHWLAWYQQKPGKAPKLLIYKASSLASGAPSRFSGSGFGTDFTLTISSLQPDDFATYYCQQMGEWKAAFGGGTKLEIKR
For B1, the binding entry in experiment [1] is given as “binds”.

B2: 355E04 germlined IgG (antibody, V domains shown)
VH: QVQLVQSGAEVKKPGASVKVSCKASGYTFTHYYMHWVRQAPGQGLEWVGWINPYTGGAFYAQKFQGRVTMTRDTSISTAYMELSRLRSDDTAVYYCAREPEKFDSPNAEIWGRGTLVTVSS
VL: QAVLTQPPSVSGAPGQRVTISCTGSSSNIGAGYGVHWYQQLPGTAPKLLIYGNSNRPSGVPDRFSGSKSGTSASLAITGLQAEDEADYYCQSYDSSLSGYVFGGGTQLTVLG
On to B2, for which the binding entry in experiment [1] and in experiment [2] was “binds” each time.

B3: 354A08 germlined IgG (antibody, V domains shown)
VH: B2 VH with H31D, Q65R, K102R, D104G, S105D, P106S, N107T, A108G, E109Q, I110V
VL: B2 VL with Q91Y, S92H, Y93W, S95K, S96E, L97Q
Take B3: the binding entry in experiment [1] is “binds”.

B4: 355B06 germlined IgG (antibody, V domains shown)
VH: B2 VH with H31D, G57S, Q65R, D104G, S105E, P106S, N107S, A108G, E109Q, I110L
VL: B2 VL with N53D, S96G
For B4, the binding entry in experiment [1] and in experiment [2] was “binds” throughout.

B5: 087B03 germlined IgG (antibody, V domains shown)
VH: EVQLVESGGGVVRPGGSLRLSCAASGFTFDDYGMNWVRQAPGKGLEWVSGVNWNGGTRDYAASVKGRFTISRDNAKNSLYLQMNSLRAEDTALYHCARGWYSGAAWNMGYWGRGTLVTVSS
VL: QAALTQPASVSGSPGQSITISCTGASGDVGAYNFVSWYQQHPGKAPKLIIYDVNKRPSGVSNRFSGSKSGNTASLTISGLQAEDEADYYCSSYTSTFSVVFGGGTKLTVLG
For B5, the binding entry in experiment [1] is given as “binds”.

B6: 367D04 IgG (non-germlined) (antibody, V domains shown)
VH: B5 VH with H95Y, A104S, A105P, N107S, M108L, Y110H
VL: QAVLTQPSSVSGSPGQSVTISCTGASGDVGAYNFVSWYQQHPGKTPKLIIYDVNKRPSGVSNRFSGSKSGNTASLTISRLQAEDESDYYCSSYTSRYTTEFGGGTKVTVLG
For B6, in experiment [1], the binding result is “binds”.

B7: 368D04 IgG (non-germlined) (antibody, V domains shown)
VH: B5 VH with H95Y
VL: B5 VL with A3V, A8S, A45T, A86S, S91A, Y93L, T94V, T96D, L107V
As for B7, the binding entry in experiment [1] and in experiment [2] was “binds” in each case.

B8: 375G06 IgG (non-germlined) (antibody, V domains shown)
VH: EVQLVQSGAEVKKPGASVKVSCQASGYTFSDYYIHWVRQTPGQGFEWMGWVNPDTGGTRYAQKFQGWVTMTRDMSNTTAYMELPRLRDDDTAVYYCARDLTGYDYYDRWGQGTLVTVSS
VL: QSVLTQPPSMSVAPGKTATITCGGNNFRNKRVHWYQQRPGQAPVLVIYYDSDRPSGIPERFSGSRSGNTATLTISRVEAGDEADFYCQVWDFLADEAMFGGGTKLTVL
Turning to B8, in experiment [1], the binding result is recorded as “binds”.

B9: 376B10 IgG (non-germlined) (antibody, V domains shown)
VH: B8 VH with R85G, Y105Q, D107T, R108A
VL: QSVLTQPPSVSVAPGKTATITCGGNNFRNKRVHWYQQRPGQAPVLVIYYDSDRPSGIPERFSGSRSGNTATLTISRVEAGDEADFYCSTFDPFTDRPLFGGGTKLTVLG
For B9, the binding result in experiment [1] was “binds”.

B10: 166B06 germlined IgG (antibody, V domains shown)
VH: QVQLVQSGAEVKKPGASVKVSCKASGYTFSDYYIHWVRQAPGQGLEWMGWVNPDTGGTRYAQKFQGRVTMTRDMSISTAYMELSRLRSDDTAVYYCARDLTGFDPFDIWGQGTLVTVSS
VL: SSVLTQPPSVSVAPGKTARITCGGNNFRNKRVHWYQQKPGQAPVLVIYYDSDRPSGIPERFSGSRSGNTATLTISRVEAGDEADYYCQVWDLFNDNGVFGGGTKLTVLG
For B10, the binding entry in experiment [1] is listed as “binds”.

B11: 166G05 germlined IgG (antibody, V domains shown)
VH: B10 VH
VL: B10 VL with L92F, F93L, N94T, N96S, V98S
On to B11, for which the binding result in experiment [1] is recorded as “binds”.

The record behind these values is US20070243589A1.
